Where a name gives a salt, the structure may show the parent alone. ± gives the standard deviation of the averaged measurements. The list shows a part of the results. Part of the spread comes from offsets between plates or batches.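 The cells are a mouse kidney inner medullary collecting duct line, silenced either for the ciliary gene Rpgrip1l or with a non-targeting control siRNA.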
Columns and labels:
[1] = test system: mIMCD3; test: robust z score of cell number vs plate controls; higher = more cells (less cytotoxic); conditions: 10 µM, 48 h
[2] = test system: mIMCD3; test: robust z score of cilia incidence (% cells with single cilium) vs plate controls; higher = more ciliated cells; conditions: 10 µM; 48 h; siRNA: siScr
[3] = test system: mIMCD3; test: robust z score of cilia incidence (% cells with single cilium) vs plate controls; higher = more ciliated cells (rescue of cilia loss); conditions: 10 µM; 48 h; siRNA: siRpgrip1l

SMILES	robust z score of cell number ([1]; siRNA: siRpgrip1l)	robust z score of cell number ([1]; siRNA: siScr)	robust z score of cilia incidence [2]	robust z score of cilia incidence [3]
O=C(Nc1ccc([N+](=O)[O-])cc1O)Nc1ccccc1Br	-30.3 ± 29	-13.8 ± 12	-20.3 ± 8.2	-20.2 ± 4.8
CCCCC[C@H](O)/C=C/[C@H]1[C@H](O)CC(=O)[C@@H]1CCCCCCC(=O)O [Alprostadil]	-9.79 ± 6.7	-7.87 ± 2.8	-2.21 ± 4.6	-11 ± 0.56
CCN1CCC[C@H]1CNC(=O)c1c(O)c(Cl)cc(Cl)c1OC [Raclopride]	1.8 ± 1.9	2.64 ± 4	-5.37 ± 6.3	-30.6 ± 29
COc1ccccc1N1CCN(CCN2C(=O)CC3(CCCC3)CC2=O)CC1 [BMY 7378 dihydrochloride]	-3.73 ± 0.7	-4.35 ± 1.8	-7.41 ± 3.4	-11.6 ± 5.1
N[C@H](C(=O)O)c1cc(O)cc(O)c1	-2.05 ± 3.8	-1.76 ± 1.2	1.26 ± 1.6	-5.18 ± 1.6
Nc1ncnc2c1ncn2C1CCCO1 (stereo not drawn)	-27.6 ± 29	-0.833 ± 3.2	-1.27 ± 1.3	-195 ± 140
O=C(O)c1cccnc1C(=O)O [Quinolinic acid]	9.38 ± 16	9.16 ± 1.8	1.42 ± 1.8	-4.88 ± 0.87
Cc1ccc(Sc2cncc3sc(C(N)=O)cc23)cc1	-12.7 ± 5.4	-66.5 ± 57	-7.29 ± 1.9	-21.4 ± 4.8
COc1cc(N)c(Cl)cc1C(=O)NC1CCN(CCCOc2ccc(F)cc2)CC1OC (stereo not drawn) [Cisapride]	-12.3 ± 7	-14.8 ± 6.7	-69.2 ± 65	-68.8 ± 47
Cc1scc2c1N(C(=O)CN1CCN(C)CC1)c1ccccc1NC2=O [Telenzepine dihydrochloride]	-5.5 ± 1.3	1.32 ± 0.5	1.13 ± 2.4	-13.15 ± 0.038
CC(C)[C@H](NS(=O)(=O)c1ccc(-c2ccc(Br)cc2)cc1)C(=O)O	-4.98 ± 5.4	1.2 ± 8.5	1.75 ± 5.7	-6.81 ± 0.24
O=[N+]([O-])c1ccccc1S(=O)(=O)NCC1CCC(CNCC2CCc3ccccc3C2)CC1 (stereo not drawn) [NTNCB hydrochloride]	-41.2 ± 27	-55.1 ± 29	-32.9 ± 15	-58.6 ± 14

No new results follow: 2 of the compounds above.
SMILES	robust z score of cell number ([1]; siRNA: siRpgrip1l)	robust z score of cell number ([1]; siRNA: siScr)	robust z score of cilia incidence [2]	robust z score of cilia incidence [3]
COc1ccccc1N1CCN(CCN2C(=O)CC3(CCCC3)CC2=O)CC1 [BMY 7378 dihydrochloride]	-3.73 ± 0.7	-4.35 ± 1.8	-7.41 ± 3.4	-11.6 ± 5.1
N[C@H](C(=O)O)c1cc(O)cc(O)c1	-2.05 ± 3.8	-1.76 ± 1.2	1.26 ± 1.6	-5.18 ± 1.6

— the supplement of paper PMC12009310
